# From the supplement of paper PMC7125110
# ± gives the standard error. Many entries were measured with a wide error.
# B1: glmS ribozyme (parent)
# chain: AUAAAAGCGCCAGAACUACAGAAAUGUAGUUGACGAGGAGGAGGUUUAUCGAAUUUUCGGCGGAUGCCUCCAAA
# Variants of: B1
# Test: self-cleavage kobs at 2500 uM GlcN6P; higher = faster cleavage; RNA array
# Settings: with glucosamine-6-phosphate
# Summary of the method: (§1)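 Tiles of sequenced MiSeq chips were imaged over ~14 h at 37 °C. On them, barcoded ribozyme variants had been transcribed in situ by E. coli RNA polymerase and were tracked via a hybridised Cy3 probe while glucosamine-6-phosphate (40 μM to 10 mM) in HEPES/KCl/Mg(OAc)2 buffer flowed in. Per-tile medians, normalised to baseline and to non-cleaving reference variants, were fit to one- or two-exponential decays for kobs, and weighted Michaelis–Menten fits gave kcat and KM.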
row,Variant,self-cleavage kobs at 2500 uM GlcN6P
1,AUAAAGGAGCCAUAACUACAGAAAUGUACUUGACUAAGAGGAGGUUUAUCGAAUUUUCGGCGGAUGCCUCUAAA [A6G C8A G13U G29C G35U G37A C71U],3.17e-05 ± 2.1e-05 s⁻¹
2,AUAAAGGCGCCAGAACUACAGAAAUGUAGUUGACGAGGAGGAGGUUUAUCGAAUUUUUGGUGGAUGUCUGCAAA [A6G C58U C61U C67U C70G],2.67e-05 ± 2e-05 s⁻¹
3,AUAAAUGCGCCAGGACUACAGAAAUGUAGUUGACGAGGAGGAGGUUUAUCGAAUUUUCGGCGGAGGCCUCCAAA [A6U A14G U65G],3.22e-05 ± 2.3e-05 s⁻¹
4,AUAAAUGCGCCAGAACUACAGAAAUGUAGUUGACGAGGAGAAGGUUUAUCGAAUUUUCGGCGGAUGCCUCCAAA [A6U G41A],1.87e-05 ± 1.8e-05 s⁻¹
5,AUAAAAACGCCAGAACUACAGAAAUGUAGUUGACGAGGAGGAGGUUUAUGGAAUUUUCGGCGGAUGCCUCCAAA [G7A C50G],2.37e-05 ± 2.3e-05 s⁻¹
6,AUAAAAACGCCAGAACUACAGAAAUGUAGUUGACGAGGAGGAGGUUUAUGGAAGUUUCGGCGGAUGCCUCCAAA [G7A C50G U54G],3.38e-05 ± 2e-05 s⁻¹
7,AUAAAAACGCCAGAACUACAGAAAUGUAGUUGACGAGGAGGAGGUUUAUCGAAUUUUCGGCGGAUGCUUCCAAA [G7A C68U],3.21e-05 ± 1.8e-05 s⁻¹
8,AUAAAAACGCCAGAACUACAGAAAUGUAGUUGACGAGGAGGAGGUUUAUCGAACUUUCGGCGGAUGCCUCCAAA [G7A U54C],2.5e-05 ± 1.4e-05 s⁻¹
9,AUAAAAACGCCAGAACUACAGAAAUGUAGUUGACGAGGAGGAGGUUUAUCGAAUUUUCGGCGGAUGCCGCCAAA [G7A U69G],4.18e-05 ± 2.3e-05 s⁻¹
10,AUAAAAUCGCCAGAACUACAGAAAUGUAGUUGACGAGGAGGAGGUUUAUCGAAUUUUGGGGGGAUGCCUCCAAA [G7U C58G C61G],4e-05 ± 3.3e-05 s⁻¹
11,AUAAAAUCGCCAGAACUACAGAAAUGUAGUUGACGAGGAGGAGGUUUAUCGAAUUUUCGGCGGAUGCCUGGAAA [G7U C70G C71G],2.64e-05 ± 2.3e-05 s⁻¹
12,AUAAAAUCGCCAUAUCUACAGAAAUGUAGUUGACGAGGAGGAGGUUUAUAAAAUUUUCGUCGGAUGACUCAAAA [G7U G13U A15U C50A G51A G60U C67A C71A],2.76e-05 ± 2.4e-05 s⁻¹
13,AUAAAAUCGCCAGAACUACAGAAAUGUAGUUGACGAGAAGGAGGUUUAUCGAAUUUUCGGCGGAUGCCCCCAAA [G7U G38A U69C],4.42e-05 ± 3e-05 s⁻¹
14,AUAAAAGAGCCAGAAUUACAGAAAUGUAGUUGACGAGAAGGAGGUUUAUCGAAUUUUCGGCGGAUGCCUCCAAA [C8A C16U G38A],3.48e-05 ± 3.2e-05 s⁻¹
15,AUAAAAGCACCAGAACUACAGAAAUGUAGUUGACGAGGAGGCGGUUUAUCGACUUUUCGGCGGAUGCCUCCAAA [G9A A42C A53C],0.00162 ± 0.0015 s⁻¹
16,AUAAAAGCACCAGAACUACAGAAAUGUAGUUGACGAGGAGGAGGUUGAUGGAAUUUUCGGCGGAGGCCUCCAAA [G9A U47G C50G U65G],3.91e-05 ± 3.4e-05 s⁻¹
17,AUAAAAGCGACAGAAUUACAGAAAUGUAGUUGACGAGGAGGAGGUUUAUCGAAUUUUCGGCGGAUGGCUCCAAA [C10A C16U C67G],2.96e-05 ± 2.8e-05 s⁻¹

row,Variant,self-cleavage kobs at 2500 uM GlcN6P
1,AUAAAAGCGACAGAACUACAGAAAUGUAGUUGACGAGAAGGAGGUUUAUCGAAAUUUCGGCGGAUGCCUCCAAA [C10A G38A U54A],0.00127 ± 0.001 s⁻¹
2,AUAAAAGCGGCAGAAAUACAGAAAUGUAGUUGACGAGGAGGAGGUUUAUCGAAUUUUCGGCGGAUUCGUCCAAA [C10G C16A G66U C68G],5.85e-05 ± 4e-05 s⁻¹
3,AUAAAAGCGGCAGAACUACAGAAAUGUAGUUGACGAGGAGGAGGUUUAUCGAAUUUUCGUCGGAUGACUCCAAA [C10G G60U C67A],4.02e-05 ± 2.2e-05 s⁻¹
4,AUAAAAGCGUCAGAACUACAGAAAUGUAGUUGUCGAGGAGGAGGUUUAUCGAACUUUCGGCGGAUGCCUCCAAA [C10U A33U U54C],1.94e-05 ± 1e-05 s⁻¹
5,AUAAAAGCGUAAGAACUACAGAAAUGUAGUUGACGAGGAGGAGGUUUAUCGAAGUUUCGGCGGAUGCCUCCAAA [C10U C11A U54G],5.27e-05 ± 4.7e-05 s⁻¹
6,AUAAAAGCGUCAGAACUACAGAAAUGUAGUUGACGAGGAGGAGGUUUAUCGAAUUUUCGGCGGAUGCCUCGAAA [C10U C71G],2.03e-05 ± 1.2e-05 s⁻¹
7,AUAAAAGCGUCAAAACUACAGAAAUGUAGUUGACGAGGAGGAGGUUUAUCGAUAAUUCGGCGGAUGCGUCCAAA [C10U G13A A53U U54A U55A C68G],6.5e-05 ± 3.6e-05 s⁻¹
8,AUAAAAGCGUCAGAACUACAGAAAUGUAGUUGACGAGUAGGAGGUUUAUCGAAUUUUCGGCGCAUGCCUUCAAA [C10U G38U G63C C70U],4.38e-05 ± 3e-05 s⁻¹
9,AUAAAAGCGUCAGAACUACAGAAAUGUAGUUGACGAGGAGGAGGUUUACCGAAUUUUUGGAGGAUGCCUCCAAA [C10U U49C C58U C61A],2.51e-05 ± 1.9e-05 s⁻¹
10,AUAAAAGCGCGAGAACUACAGAAAUGUAGUUGACGAGGAGGAGGUUUAUCGAAUUUUCGGCGGAUGGCUCCAAA [C11G C67G],2.39e-05 ± 1.4e-05 s⁻¹
11,AUAAAAGCGCGAGAACUACAGAAAUGUAUUUGACGAGGAGGAGGUUUAUCGAAUUUUCGGCGGAUGCCUUCAAA [C11G G29U C70U],5.04e-05 ± 3.8e-05 s⁻¹
12,AUAAAAGCGCGAGAACUACAGAAAUGUAGUUUACGAGGAGGAGGUUCAUCGAAUUUUCGGCUGAUGUCUUGAAA [C11G G32U U47C G62U C67U C70U C71G],3.65e-05 ± 2.2e-05 s⁻¹
13,AUAAAAGCGCUCGAACUACAGAAAUGUAGUUGACGAGGAGGAGGUUUAUCGAAUGUUCGGCGGAUGCCUCCAAA [C11U A12C U55G],2.55e-05 ± 1.8e-05 s⁻¹
14,AUAAAAGCGCUAGUACUACAGAAAUGUAGUUAACGAGGAGGAGGGUUAUCGAAUUUUCGGCGGAUGCCUCCAAA [C11U A14U G32A U45G],3.17e-05 ± 2.6e-05 s⁻¹
15,AUAAAAGCGCUAGAACUACAGAAAUGUAGUUGACGAGGAGGAGGUUUAUCGAGUUUUCGGCGGAUACCUCCAAA [C11U A53G G66A],9.59e-05 ± 4.8e-05 s⁻¹
16,AUAAAAGCGCUAGAACUACAGAAAUGUAGUUGACGAGGAGGAGGUUUAUCGAAUUUUCGGCGGAUGCGUCCAAA [C11U C68G],2.16e-05 ± 1.8e-05 s⁻¹
17,AUAAAAGCGCUAGAACUACAGAAAUGUAUUUGACGAGGCGGAGGUUUAUCGAAAUUUCGGCGGAUGCCUCCAAA [C11U G29U A39C U54A],2.5e-05 ± 1.4e-05 s⁻¹

# Reprinted from the listing (2 entries):
row,Variant,self-cleavage kobs at 2500 uM GlcN6P
2,AUAAAAGCGGCAGAAAUACAGAAAUGUAGUUGACGAGGAGGAGGUUUAUCGAAUUUUCGGCGGAUUCGUCCAAA [C10G C16A G66U C68G],5.85e-05 ± 4e-05 s⁻¹
3,AUAAAAGCGGCAGAACUACAGAAAUGUAGUUGACGAGGAGGAGGUUUAUCGAAUUUUCGUCGGAUGACUCCAAA [C10G G60U C67A],4.02e-05 ± 2.2e-05 s⁻¹

# Variants of: B1
# Test: self-cleavage kobs at 10000 uM GlcN6P; higher = faster cleavage; RNA array
# Settings: with glucosamine-6-phosphate
# Summary of the method: as §1
row,Variant,self-cleavage kobs at 10000 uM GlcN6P
1,AUAAAAACGCCAGAACUACAGAAAUGUAGUUGACGAGGAGGAGGUUUAUCGAAUUUUCGGCGGAUGCUUCCAAA [G7A C68U],1.72e-05 ± 1.4e-05 s⁻¹
2,AUAAAAACGCCAGAACUACAGAAAUGUAGUUGACGAGGAGGAGGUUUAUCGAACUUUCGGCGGAUGCCUCCAAA [G7A U54C],1.48e-05 ± 1.3e-05 s⁻¹
3,AUAAAAUCGCCAGAACUACAGAAAUGUAGUUGACGAGGAGGAGGUUUAUCGAAUUUUCGGCGGAUGCCUGGAAA [G7U C70G C71G],2.42e-05 ± 1.9e-05 s⁻¹
